Our source for the binding values is patent publication EP1304122A2.

Test [1] deals with T1, V7 (leukocyte surface protein, also known as CD101) (UniProt Q93033).
T1 sequence (looked up): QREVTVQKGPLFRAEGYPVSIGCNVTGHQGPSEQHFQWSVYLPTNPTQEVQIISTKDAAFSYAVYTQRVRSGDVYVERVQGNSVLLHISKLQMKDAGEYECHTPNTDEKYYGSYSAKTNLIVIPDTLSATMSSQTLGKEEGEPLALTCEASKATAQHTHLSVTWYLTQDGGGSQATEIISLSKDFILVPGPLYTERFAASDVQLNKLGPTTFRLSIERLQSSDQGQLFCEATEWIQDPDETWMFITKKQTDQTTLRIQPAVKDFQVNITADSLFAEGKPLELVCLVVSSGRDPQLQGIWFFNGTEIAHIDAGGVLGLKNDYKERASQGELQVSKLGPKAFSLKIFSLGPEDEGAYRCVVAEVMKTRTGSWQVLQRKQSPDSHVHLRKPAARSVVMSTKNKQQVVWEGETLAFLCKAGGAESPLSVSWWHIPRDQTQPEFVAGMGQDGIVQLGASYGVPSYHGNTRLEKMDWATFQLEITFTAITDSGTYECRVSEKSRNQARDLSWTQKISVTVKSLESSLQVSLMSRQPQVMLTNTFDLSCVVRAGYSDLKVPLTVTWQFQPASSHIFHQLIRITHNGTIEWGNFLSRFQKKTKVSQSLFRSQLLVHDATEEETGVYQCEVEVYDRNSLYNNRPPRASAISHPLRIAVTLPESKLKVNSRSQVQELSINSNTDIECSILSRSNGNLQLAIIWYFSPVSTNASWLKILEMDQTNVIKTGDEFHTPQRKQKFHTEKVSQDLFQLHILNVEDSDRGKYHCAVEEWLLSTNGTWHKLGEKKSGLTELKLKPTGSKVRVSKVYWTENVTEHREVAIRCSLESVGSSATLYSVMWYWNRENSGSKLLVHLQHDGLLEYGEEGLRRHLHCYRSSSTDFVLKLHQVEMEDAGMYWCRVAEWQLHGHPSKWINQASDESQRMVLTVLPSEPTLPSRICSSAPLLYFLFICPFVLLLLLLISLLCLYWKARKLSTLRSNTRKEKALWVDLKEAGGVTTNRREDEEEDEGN
In words: co-immunoprecipitation from T cell lysate with anti-V7 murine antibody.

The target in test [2] is T1, V7 (leukocyte surface protein, also known as CD101). In words: co-immunoprecipitation from T cell lysate with anti-V7 murine monoclonal antibody and goat anti-mouse IgG.

No constants are given. Whether binding was seen depends on the method and setting. Binding seen in cells or lysates may run through a third protein. Some results given as binding are weak or reduced against the parent protein; the word gives no strength.

With “RAF-1 kinase (from UniProt P04049 1-648) (enzyme)”, the binding result in test [1] and in test [2] was “binds” in each case.
